According to paper PMC7417771 (Frontiers in Chemistry, 2020):

Experiment: general procedure: Fmoc solid-phase peptide synthesis; HMPB linker on aminomethyl-polystyrene resin; HATU/DIPEA
Conditions: whole synthesis, scale 0.051 mmol

In the case of lipobactin 3, the isolated mass is reported as 15.1 mg and the isolated yield is reported as 32.7% yield.
